Measurements from patent US10487110B2, “Stabilized compounds having secondary structure motifs” (President and Fellows of Harvard College, priority 1999, dated 2019).

Tested on: trypsin
Test: Peptide trypsin digest (cleavage rate constants)
Type: in vitro ADME
Conditions: compared to the unmodified control peptide
Description: Peptide trypsin digest: A typical peptide trypsin digest experiment was performed by adding 5 μL of a 20× trypsin solution in 1 mM HCl to a 100 μL solution of peptide at 9 μM in 10% EtOH in 50 mM Tris at pH 8.3. The reaction was allowed to proceed at room temperature for 30 min at which time it was quenched by adding 100 μL of a 1% trifluoroacetic acid solution and frozen on dry ice. The sample was then thawed and injected into a reverse phase HPLC on a C18 column for quantitation at 280 nm. The cleavage rate constants were obtained by performing the digest experiments at multiple trypsin concentrations and fitting to a kinetic model that is first order in both enzyme and substrate concentration.

## Ri,i+7S(11): Ac-EWAEyAAAKFLzAHA-NH2 (SEQ ID NO: 2), (y,z) = (R-13,S-16), 11 carbon crosslink
  stabilization toward trypsin digestion / decrease of cleavage rate versus unmodified control peptide: 41 fold
